Results taken from patent US6376512B1, “Therapeutic uses of quinoline derivatives” (Aventis Pharma Deutschland GmbH, priority 1997, dated 2002).
For at least one compound, name, drawing or mass did not settle the structure.

Molecular target: T1, LTD4 receptor (Homo sapiens, UniProt Q9Y271)
T1 construct: endogenous in cells
T1 sequence (Q9Y271 1-337): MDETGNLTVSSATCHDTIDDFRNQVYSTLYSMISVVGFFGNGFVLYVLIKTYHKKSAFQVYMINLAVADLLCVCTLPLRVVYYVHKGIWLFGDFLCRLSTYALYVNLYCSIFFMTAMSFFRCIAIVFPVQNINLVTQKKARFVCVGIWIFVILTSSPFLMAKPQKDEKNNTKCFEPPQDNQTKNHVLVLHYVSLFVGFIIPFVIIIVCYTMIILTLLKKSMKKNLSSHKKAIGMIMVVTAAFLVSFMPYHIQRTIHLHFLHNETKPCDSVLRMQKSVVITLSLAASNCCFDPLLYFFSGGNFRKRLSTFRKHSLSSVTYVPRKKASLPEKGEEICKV
Test: LTD4 receptor binding in THP-1 cells

SMILES: Cc1c(C)c2c(c(C)c1O)CCC(C)(COc1ccc(CC3SC(=O)NC3=O)cc1)O2 (stereo not shown) [Troglitazone ®, Troglitazone, reference compound]
- binding to the LTD4 receptor (in words): devoid of this activity
